For some of these results: Where cells or extracts were used, other partners may take part. Protein sequences can lack the tags named with them.
Columns and labels:
[1] = system: T1, GAD1 (GAL4 AD fusion clone) (Aspergillus niger); experiment: EMSA; settings: shift similar to A. niger total extract; poly(dI-dC); protein in a lysate after overexpression; label: 32P
T1 sequence: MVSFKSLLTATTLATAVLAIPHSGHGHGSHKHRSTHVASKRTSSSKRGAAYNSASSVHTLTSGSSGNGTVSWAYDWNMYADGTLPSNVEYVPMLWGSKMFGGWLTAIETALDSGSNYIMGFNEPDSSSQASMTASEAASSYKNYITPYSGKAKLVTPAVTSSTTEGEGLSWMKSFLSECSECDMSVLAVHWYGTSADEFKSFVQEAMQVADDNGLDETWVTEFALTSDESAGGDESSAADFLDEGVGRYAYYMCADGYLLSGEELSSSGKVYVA

[2] = system: T2, GAD11 (GAL4 AD fusion clone) (Aspergillus niger); experiment: EMSA; settings: larger shift than GAD1; poly(dI-dC); protein in a lysate after overexpression; label: 32P
T2 sequence: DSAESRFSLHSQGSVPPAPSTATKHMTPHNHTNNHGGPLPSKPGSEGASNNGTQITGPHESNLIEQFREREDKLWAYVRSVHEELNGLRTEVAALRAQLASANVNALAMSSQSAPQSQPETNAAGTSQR

[3] = system: T1, GAD1 (GAL4 AD fusion clone) (Aspergillus niger); experiment: one hybrid; settings: growth on SD/-Leu/-His with 30 mM 3-AT; protein in a lysate after overexpression; variant of BREF51
[4] = system: T2, GAD11 (GAL4 AD fusion clone) (Aspergillus niger); experiment: one hybrid; settings: growth on SD/-Leu/-His with 30 mM 3-AT; protein in a lysate after overexpression; variant of BREF51

Sequence | binding result [1] | binding result [2] | activity on this sequence [3] | activity on this sequence [4]
ACTAGTCACAAGTTACGAGTTGTGTACATAACATCATTAGTCATGAAGATC (double strand) [BREF51] | binds | binds | – | –
ACTAGTCACAAGTTACGAGTTGTGTACATAACATCATTAGTCATGAAGATC (double strand) [BREF51 three tandem copies in pHISi-1] | – | – | active | active

From US20060277620
